Measurements from publication doi:10.1101/2025.02.24.639257.
Results are given in words; binding and its absence hold for the method and conditions named. Some results given as binding are weak or reduced against the parent protein; the word gives no strength.

Sequences of proteins named here, by UniProt entry; tags and fusion partners are left off. A change or cut given only in a name is not applied to a line headed by its entry.
UniProt P68363, whole entry: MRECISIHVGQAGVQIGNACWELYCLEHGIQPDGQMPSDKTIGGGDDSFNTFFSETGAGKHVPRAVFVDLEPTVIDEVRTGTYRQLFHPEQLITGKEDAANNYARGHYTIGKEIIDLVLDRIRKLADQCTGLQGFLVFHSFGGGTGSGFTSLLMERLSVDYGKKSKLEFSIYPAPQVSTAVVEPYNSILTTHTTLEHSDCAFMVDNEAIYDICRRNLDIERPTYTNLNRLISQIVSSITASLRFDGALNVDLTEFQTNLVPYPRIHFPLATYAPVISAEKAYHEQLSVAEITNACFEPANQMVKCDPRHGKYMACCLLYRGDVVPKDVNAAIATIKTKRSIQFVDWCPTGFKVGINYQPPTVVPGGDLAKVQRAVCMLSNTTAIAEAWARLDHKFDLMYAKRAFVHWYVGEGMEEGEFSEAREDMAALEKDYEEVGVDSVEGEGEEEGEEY

B1: human TTLL11 (E441G) of the cryo-EM sample (enzyme, UniProt Q8NHH1 121-710)
chain: GENGSQRPVTVDSSKARTSLDALKISIRQLKWKEFPFGRRLPCDIYWHGVSFHDNDIFSGQVNKFPGMTEMVRKITLSRAVRTMQNLFPEEYNFYPRSWILPDEFQLFVAQVQMVKDDDPSWKPTFIVKPDGGCQGDGIYLIKDPSDIRLAGTLQSRPAVVQEYICKPLLIDKLKFDIRLYVLLKSLDPLEIYIAKDGLSRFCTEPYQEPTPKNLHRIFMHLTNYSLNIHSGNFIHSDSASTGSKRTFSSILCRLSSKGVDIKKVWSDIISVVIKTVIALTPELKVFYQSDIPTGRPGPTCFQILGFDILLMKNLKPILLGVNANPSMRIEHEHELSPGVFENVPSLVDEEVKVAVIRDTLRLMDPLKKKRENQSQQLEKPFAGKEDALDGELTSAPDCNANPEAHLPSICLKQVFPKYAKQFNYLRLVDRMANLFIRFLGIKGTMKLGPTGFRTFIRSCKLSSSSLSMAAVDILYIDITRRWNSMTLDQRDSGMCLQAFVEAFFFLAQRKFKMLPLHEQVASLIDLCEYHLSLLDEKRLVCGRGVPSGGRPPHRGPPQEPSPSAQPAGDNPPPRTSCANKLSHPRHTLS
B2: human TTLL11 (tubulin tyrosine ligase-like 11), full length (enzyme, UniProt Q8NHH1 1-710)
chain: MRRGSSESELAARWEAEAVAAAKAAAKAEAEATAETVAEQVRVDAGAAGEPECKAGEEQPKVLAPAPAQPSAAEEGNTQVLQRPPPTLPPSKPKPVQGLCPHGKPRDKGRSCKRSSGHGSGENGSQRPVTVDSSKARTSLDALKISIRQLKWKEFPFGRRLPCDIYWHGVSFHDNDIFSGQVNKFPGMTEMVRKITLSRAVRTMQNLFPEEYNFYPRSWILPDEFQLFVAQVQMVKDDDPSWKPTFIVKPDGGCQGDGIYLIKDPSDIRLAGTLQSRPAVVQEYICKPLLIDKLKFDIRLYVLLKSLDPLEIYIAKDGLSRFCTEPYQEPTPKNLHRIFMHLTNYSLNIHSGNFIHSDSASTGSKRTFSSILCRLSSKGVDIKKVWSDIISVVIKTVIALTPELKVFYQSDIPTGRPGPTCFQILGFDILLMKNLKPILLEVNANPSMRIEHEHELSPGVFENVPSLVDEEVKVAVIRDTLRLMDPLKKKRENQSQQLEKPFAGKEDALDGELTSAPDCNANPEAHLPSICLKQVFPKYAKQFNYLRLVDRMANLFIRFLGIKGTMKLGPTGFRTFIRSCKLSSSSLSMAAVDILYIDITRRWNSMTLDQRDSGMCLQAFVEAFFFLAQRKFKMLPLHEQVASLIDLCEYHLSLLDEKRLVCGRGVPSGGRPPHRGPPQEPSPSAQPAGDNPPPRTSCANKLSHPRHTLS
modifications: Janelia 549-HALO probe on the HALO tag (in the TIRF assay)

Key:
[1] = target: human α-tubulin (TUBA-1B) in the microtubule of the cryo-EM structure (human (endogenous in HEK293T)) (UniProt P68363); assay: cryo-EM structure
[2] = target: human TTLL11 (tubulin tyrosine ligase-like 11), full length (human) (UniProt Q8NHH1); assay: SEC

Row | Binder | binding [1] | binding [2]
1 | B1 | binds | –
2 | B2 | – | no binding
